Assay results from paper PMC5111884.
No constants are given. Whether binding was seen depends on the method and setting. Binding seen in cells or lysates may run through a third protein. Some binding calls cover weakened binding; strength is not graded here.

Amino acid sequences for entries named in this document (tags omitted). Residues count along the entry.
UniProt P53762: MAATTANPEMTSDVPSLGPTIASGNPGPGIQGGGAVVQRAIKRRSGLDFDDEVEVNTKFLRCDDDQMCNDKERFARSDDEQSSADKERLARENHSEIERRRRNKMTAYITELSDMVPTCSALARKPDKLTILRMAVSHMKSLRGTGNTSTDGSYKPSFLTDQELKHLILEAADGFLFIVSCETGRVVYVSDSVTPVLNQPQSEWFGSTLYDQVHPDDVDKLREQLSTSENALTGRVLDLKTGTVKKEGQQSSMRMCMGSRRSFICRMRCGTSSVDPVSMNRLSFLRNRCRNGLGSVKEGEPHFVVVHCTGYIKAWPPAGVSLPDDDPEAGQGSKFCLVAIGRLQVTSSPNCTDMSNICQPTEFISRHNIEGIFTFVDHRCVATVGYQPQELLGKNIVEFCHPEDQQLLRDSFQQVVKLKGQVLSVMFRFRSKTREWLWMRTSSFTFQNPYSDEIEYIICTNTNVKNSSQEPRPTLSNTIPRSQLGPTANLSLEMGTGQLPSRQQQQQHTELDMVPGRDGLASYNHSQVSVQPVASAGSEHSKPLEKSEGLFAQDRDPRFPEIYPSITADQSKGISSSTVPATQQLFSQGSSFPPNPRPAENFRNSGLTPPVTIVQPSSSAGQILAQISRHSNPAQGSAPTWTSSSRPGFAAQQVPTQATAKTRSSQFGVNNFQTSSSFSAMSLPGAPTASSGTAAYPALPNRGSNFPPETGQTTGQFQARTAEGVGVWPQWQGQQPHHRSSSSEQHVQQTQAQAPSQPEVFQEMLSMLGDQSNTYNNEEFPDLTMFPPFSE
UniProt Q61324: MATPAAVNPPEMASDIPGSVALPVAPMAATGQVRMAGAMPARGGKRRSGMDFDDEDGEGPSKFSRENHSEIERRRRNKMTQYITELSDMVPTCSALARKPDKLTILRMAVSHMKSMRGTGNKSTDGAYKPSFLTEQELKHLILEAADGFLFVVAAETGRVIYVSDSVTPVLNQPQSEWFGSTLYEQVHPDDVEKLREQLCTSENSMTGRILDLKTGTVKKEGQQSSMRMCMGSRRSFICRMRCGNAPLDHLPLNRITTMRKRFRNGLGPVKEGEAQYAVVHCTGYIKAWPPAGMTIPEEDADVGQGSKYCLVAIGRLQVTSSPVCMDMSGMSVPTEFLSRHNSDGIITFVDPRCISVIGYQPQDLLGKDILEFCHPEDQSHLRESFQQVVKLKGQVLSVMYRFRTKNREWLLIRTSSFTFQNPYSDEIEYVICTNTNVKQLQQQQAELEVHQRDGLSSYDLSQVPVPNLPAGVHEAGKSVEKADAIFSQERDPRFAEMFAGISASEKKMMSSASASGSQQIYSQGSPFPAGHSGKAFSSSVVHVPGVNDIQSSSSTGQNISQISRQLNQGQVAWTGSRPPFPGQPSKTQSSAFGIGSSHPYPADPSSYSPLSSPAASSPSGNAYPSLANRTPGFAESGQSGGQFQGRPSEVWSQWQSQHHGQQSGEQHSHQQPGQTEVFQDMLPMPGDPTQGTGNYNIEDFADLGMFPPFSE
UniProt P30561, residues 10-848: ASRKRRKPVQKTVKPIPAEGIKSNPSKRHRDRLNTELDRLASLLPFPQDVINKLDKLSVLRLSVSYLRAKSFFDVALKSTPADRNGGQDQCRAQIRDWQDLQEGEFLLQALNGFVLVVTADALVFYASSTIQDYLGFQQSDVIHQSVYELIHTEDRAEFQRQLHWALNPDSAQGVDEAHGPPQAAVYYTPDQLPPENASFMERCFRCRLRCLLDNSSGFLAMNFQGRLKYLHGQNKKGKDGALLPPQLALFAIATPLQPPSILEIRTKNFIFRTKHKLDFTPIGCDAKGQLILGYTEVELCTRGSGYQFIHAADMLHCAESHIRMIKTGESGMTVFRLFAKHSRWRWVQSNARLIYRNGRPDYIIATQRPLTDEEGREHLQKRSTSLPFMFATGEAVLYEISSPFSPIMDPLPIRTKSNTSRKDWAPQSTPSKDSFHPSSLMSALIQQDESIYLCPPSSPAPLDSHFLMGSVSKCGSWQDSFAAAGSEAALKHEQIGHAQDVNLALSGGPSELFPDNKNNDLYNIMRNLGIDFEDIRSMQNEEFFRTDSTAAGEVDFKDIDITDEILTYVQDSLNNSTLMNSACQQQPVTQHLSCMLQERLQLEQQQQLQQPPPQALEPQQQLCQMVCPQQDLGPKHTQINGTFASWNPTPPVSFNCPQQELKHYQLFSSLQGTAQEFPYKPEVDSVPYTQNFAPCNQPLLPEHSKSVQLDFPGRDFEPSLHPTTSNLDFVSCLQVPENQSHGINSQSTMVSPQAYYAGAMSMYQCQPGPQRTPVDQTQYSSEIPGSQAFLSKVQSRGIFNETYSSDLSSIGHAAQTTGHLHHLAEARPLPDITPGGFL
UniProt Q61045: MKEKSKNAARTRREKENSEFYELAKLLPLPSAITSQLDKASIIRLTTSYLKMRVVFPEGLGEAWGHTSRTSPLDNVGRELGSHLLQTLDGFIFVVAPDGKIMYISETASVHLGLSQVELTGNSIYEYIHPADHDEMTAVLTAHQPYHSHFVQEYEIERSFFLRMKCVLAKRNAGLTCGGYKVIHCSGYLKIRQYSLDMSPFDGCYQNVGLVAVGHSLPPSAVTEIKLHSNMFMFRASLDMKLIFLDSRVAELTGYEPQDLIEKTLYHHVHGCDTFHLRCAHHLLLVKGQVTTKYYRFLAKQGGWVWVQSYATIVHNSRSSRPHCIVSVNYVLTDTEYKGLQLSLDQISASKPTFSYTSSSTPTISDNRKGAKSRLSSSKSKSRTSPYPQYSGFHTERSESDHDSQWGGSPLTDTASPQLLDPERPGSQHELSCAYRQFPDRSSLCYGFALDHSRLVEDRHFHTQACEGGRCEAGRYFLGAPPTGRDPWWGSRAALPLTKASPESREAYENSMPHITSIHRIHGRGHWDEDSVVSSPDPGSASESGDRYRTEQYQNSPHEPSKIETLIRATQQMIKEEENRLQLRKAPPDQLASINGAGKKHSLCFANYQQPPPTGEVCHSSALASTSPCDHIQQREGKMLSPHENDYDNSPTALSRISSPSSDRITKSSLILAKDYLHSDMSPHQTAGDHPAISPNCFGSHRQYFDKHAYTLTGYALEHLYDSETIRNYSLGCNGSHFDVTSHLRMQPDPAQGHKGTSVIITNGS

Assays:
[1] = molecular target: full-length ARNT (pCMV-Tag1-ARNT), Flag-tagged (mouse) (UniProt P53762); test: co-IP; HEK293T cells co-transfected with pCMV-Tag4 (Myc) class I partner and pCMV-Tag1 (Flag) ARNT or ARNT2, WT or mutants; 10 nM 2,3,7,8-tetrachlorodibenzo-p-dioxin added in the case of AHR; immunoprecipitation as in Wu et al., 2015
[2] = molecular target: mouse ARNT2 (pCMV-Tag1-ARNT2), C-terminal Flag-tagged (mouse) (UniProt Q61324); test: as above

Substance: AHR (pCMV-Tag4-AHR) (from UniProt P30561 10-848)
- binding [1]: binds

Substance: full-length mouse SIM1, C-terminal Myc-tagged (from UniProt Q61045 1-765)
- binding [1]: binds
- binding [2]: binds
